Reference: article doi:10.1101/2025.04.30.651444
Results are given in words; binding and its absence hold for the method and conditions named. Binding seen in cells or lysates may run through a third protein. Some entries that bind do so weakly or less than the wild type. Tags and fused reporters may be left off the sequences shown.

Chains of the proteins cited; added tags and fusions are not shown. Lines headed by an entry give the natural chain unless they say otherwise; changes in a name come on top.
UniProt Q12150, whole entry: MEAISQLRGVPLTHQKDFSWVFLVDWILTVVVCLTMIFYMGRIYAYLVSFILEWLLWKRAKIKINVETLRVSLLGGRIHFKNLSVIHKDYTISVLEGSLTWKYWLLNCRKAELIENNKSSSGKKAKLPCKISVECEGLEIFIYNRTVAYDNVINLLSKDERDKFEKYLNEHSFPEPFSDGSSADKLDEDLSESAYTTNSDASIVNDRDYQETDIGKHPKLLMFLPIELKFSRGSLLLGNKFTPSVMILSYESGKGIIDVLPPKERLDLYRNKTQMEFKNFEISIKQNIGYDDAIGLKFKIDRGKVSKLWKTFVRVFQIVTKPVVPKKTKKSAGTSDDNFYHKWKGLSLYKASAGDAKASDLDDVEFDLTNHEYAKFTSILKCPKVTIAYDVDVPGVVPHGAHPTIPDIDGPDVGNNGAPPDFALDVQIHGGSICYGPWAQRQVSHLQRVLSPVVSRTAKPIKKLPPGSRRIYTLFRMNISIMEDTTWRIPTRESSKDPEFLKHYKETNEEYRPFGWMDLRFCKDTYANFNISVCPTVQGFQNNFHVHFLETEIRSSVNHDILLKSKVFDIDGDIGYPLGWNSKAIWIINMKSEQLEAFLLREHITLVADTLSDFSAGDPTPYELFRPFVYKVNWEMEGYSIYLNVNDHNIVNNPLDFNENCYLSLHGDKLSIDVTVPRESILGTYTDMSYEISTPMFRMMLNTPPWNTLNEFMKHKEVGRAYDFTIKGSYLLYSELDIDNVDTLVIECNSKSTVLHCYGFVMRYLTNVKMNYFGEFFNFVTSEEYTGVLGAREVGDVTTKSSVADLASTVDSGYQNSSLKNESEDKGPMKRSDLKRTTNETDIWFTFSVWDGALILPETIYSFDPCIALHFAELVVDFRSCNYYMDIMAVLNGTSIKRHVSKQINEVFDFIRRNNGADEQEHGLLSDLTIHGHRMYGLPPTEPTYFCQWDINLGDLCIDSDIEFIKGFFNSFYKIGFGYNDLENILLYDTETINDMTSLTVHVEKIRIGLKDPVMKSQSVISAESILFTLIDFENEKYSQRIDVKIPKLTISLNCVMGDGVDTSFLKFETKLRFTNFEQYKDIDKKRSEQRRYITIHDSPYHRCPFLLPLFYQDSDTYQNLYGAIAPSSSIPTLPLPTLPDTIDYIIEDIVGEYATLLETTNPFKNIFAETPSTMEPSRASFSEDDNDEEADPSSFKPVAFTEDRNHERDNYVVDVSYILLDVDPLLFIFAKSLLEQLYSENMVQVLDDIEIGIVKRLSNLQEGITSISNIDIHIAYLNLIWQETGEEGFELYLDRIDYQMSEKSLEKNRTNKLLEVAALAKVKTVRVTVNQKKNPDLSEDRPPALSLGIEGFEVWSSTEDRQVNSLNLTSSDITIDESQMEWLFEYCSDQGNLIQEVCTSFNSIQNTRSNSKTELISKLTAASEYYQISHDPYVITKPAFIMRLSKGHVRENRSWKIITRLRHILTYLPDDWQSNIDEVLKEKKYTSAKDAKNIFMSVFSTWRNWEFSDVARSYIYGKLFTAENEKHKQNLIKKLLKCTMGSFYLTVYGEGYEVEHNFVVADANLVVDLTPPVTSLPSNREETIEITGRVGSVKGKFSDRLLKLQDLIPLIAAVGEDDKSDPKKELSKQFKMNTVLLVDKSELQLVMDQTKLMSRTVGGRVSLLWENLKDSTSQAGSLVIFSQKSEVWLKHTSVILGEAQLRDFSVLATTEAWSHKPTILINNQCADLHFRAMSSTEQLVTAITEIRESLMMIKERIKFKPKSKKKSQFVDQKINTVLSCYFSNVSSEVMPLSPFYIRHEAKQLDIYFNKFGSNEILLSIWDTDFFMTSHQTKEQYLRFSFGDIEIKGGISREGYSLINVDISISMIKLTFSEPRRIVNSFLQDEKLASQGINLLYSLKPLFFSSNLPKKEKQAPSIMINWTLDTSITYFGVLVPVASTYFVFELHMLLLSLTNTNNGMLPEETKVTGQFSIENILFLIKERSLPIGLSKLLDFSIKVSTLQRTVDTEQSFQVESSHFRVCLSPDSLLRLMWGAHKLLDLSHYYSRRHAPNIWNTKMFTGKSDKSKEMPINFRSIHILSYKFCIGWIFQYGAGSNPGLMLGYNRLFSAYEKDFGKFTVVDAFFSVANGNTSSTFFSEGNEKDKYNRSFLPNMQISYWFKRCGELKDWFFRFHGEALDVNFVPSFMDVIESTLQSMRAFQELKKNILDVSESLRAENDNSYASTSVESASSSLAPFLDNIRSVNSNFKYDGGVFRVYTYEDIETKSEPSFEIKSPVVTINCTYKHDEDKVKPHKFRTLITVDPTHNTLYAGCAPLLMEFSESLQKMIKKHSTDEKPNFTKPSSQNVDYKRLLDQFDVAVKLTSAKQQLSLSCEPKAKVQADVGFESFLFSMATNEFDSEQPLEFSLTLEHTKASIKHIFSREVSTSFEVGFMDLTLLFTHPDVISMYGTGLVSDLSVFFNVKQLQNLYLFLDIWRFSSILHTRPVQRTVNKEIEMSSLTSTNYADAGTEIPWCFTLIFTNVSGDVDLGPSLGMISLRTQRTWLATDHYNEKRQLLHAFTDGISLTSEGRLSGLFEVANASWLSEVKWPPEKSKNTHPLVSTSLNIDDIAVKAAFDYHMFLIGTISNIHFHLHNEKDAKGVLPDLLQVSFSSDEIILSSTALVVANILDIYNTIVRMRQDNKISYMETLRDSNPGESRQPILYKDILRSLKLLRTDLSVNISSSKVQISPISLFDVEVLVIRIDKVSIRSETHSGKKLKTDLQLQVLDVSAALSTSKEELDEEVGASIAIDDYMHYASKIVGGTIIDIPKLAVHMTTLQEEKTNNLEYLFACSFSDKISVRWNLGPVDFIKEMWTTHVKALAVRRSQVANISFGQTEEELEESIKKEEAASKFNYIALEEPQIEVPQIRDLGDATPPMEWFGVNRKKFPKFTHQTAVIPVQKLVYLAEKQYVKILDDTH

Biological target: Csf1 tagged internally with the Envy variant of GFP (Csf1^GFP) (S. cerevisiae) (UniProt Q12150)
Experiment: co-IP

Binder	binding
May24-HA (Ypr153w/May24, yeast TMEM170 family protein) (protein, UniProt Q06537 1-140) MRSFVTNNDIPVGYVTPKFPSLYWPINNSKYNTAFLYYISDIWKFSLYWTLIFNGAFYVTAGVYASLTHRKKAGSVWIFVMYVLYGGVQGLTTGTVMGFLIGAIYRSGLFSMSTWVPLCCAVVQILFDVVLSYSMVGSVM	binds
Dlt1-HA (Ymr126c/Dlt1) (protein, UniProt Q04216 1-342) MSGFAKLKSWLYKASLFVSLILLIGFSVVLPIDSIAQASKSENNAFNTFIVVGALVVFGVFCIFIIIGRMLFHKSCLKDIPRRYIPITPADLPHRSSREAVLQNMERSKELTILLKKPKDPVIHDGLEPPRRCDYPLDEKLFPEYLNYADCIKSLTDRLKYHGLFLNNLDVRMNLEDTFADVVNSQFVNHNANKIQLEKAKEFIDLYETIRFSGKDVTRDQFIKFVKFCLYFGEVSLTRDTSFANLHNFRLNGSSNNIGRTESKYSINPFDENEYAQDDMHYFPEPPTHLVRESSISTVARHVSSGVDLTNSEEHPLDTDSDCNALRLKLSKADSYRSVIRH	binds
